{"source": "PubChem BioAssay AID686943 (Drosophila RNAi Screening Center, 2013)", "aim": "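Knockdowns that increase or decrease active ERK after insulin receptor stimulation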 (primary screen)", "system": "Drosophila S2R+ haemocyte-like cells expressing YFP-tagged ERK (Rolled)", "knock-down reagent": "long dsRNA against Drosophila genes", "treatment": "insulin stimulation versus unstimulated cells; dose and duration not given", "detection": "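Antibody staining for doubly phosphorylated ERK divided by ERK-YFP signal, as plate z-scores, in insulin-treated and untreated cells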", "direction": "replicate 1, z-score of dpERK with insulin: higher = more active ERK per ERK-YFP after insulin", "note": "In all, the deposit lists about 23,000 reagents; this is a random part of those with a known target gene and a result. 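Extra replicates exist only for a retested subset of genes; insulin dose and duration not given; both raised and lowered dpERK matter.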 A plus sign joins genes that one reagent is predicted to hit. Not all columns of the deposit are shown. Reagent sequences are not shown. Not stated in the record: the amount of reagent, the time to read-out."}
{"gene knocked down": "CG5565 (GeneID 33323)", "amplicon": "DRSC00690", "replicate 1, z-score of dpERK with insulin": -1.13}
{"gene knocked down": "CG14659 (GeneID 40604)", "amplicon": "DRSC12245", "replicate 1, z-score of dpERK with insulin": 0.35}
{"gene knocked down": "Nepl6 (GeneID 33893)", "amplicon": "DRSC03242", "replicate 1, z-score of dpERK with insulin": 0.38}
{"gene knocked down": "CG1317 (GeneID 38300)", "amplicon": "DRSC08305", "replicate 1, z-score of dpERK with insulin": -0.37}
{"gene knocked down": "BI-1 (GeneID 38936)", "amplicon": "DRSC10782", "replicate 1, z-score of dpERK with insulin": -0.94}
{"gene knocked down": "CG15027 (GeneID 32440)", "amplicon": "DRSC19608", "replicate 1, z-score of dpERK with insulin": 0.45}
{"gene knocked down": "chp (GeneID 43690)", "amplicon": "DRSC16925", "replicate 1, z-score of dpERK with insulin": 0.03}
{"gene knocked down": "CG9018 (GeneID 38283)", "amplicon": "DRSC08618", "replicate 1, z-score of dpERK with insulin": -0.84}
{"gene knocked down": "cry (GeneID 42305)", "amplicon": "DRSC16928", "replicate 1, z-score of dpERK with insulin": 0.53}
{"gene knocked down": "CG6674 (GeneID 39174)", "amplicon": "DRSC10692", "replicate 1, z-score of dpERK with insulin": -1}
{"gene knocked down": "Pis (GeneID 32506)", "amplicon": "DRSC20178", "replicate 1, z-score of dpERK with insulin": 1.12}
{"gene knocked down": "CG11475 (GeneID 37513)", "amplicon": "DRSC04113", "replicate 1, z-score of dpERK with insulin": -0.48}

Continued (3 carried over from the part before).
{"gene knocked down": "CG6674 (GeneID 39174)", "amplicon": "DRSC10692", "replicate 1, z-score of dpERK with insulin": -1}
{"gene knocked down": "Pis (GeneID 32506)", "amplicon": "DRSC20178", "replicate 1, z-score of dpERK with insulin": 1.12}
{"gene knocked down": "CG11475 (GeneID 37513)", "amplicon": "DRSC04113", "replicate 1, z-score of dpERK with insulin": -0.48}
{"gene knocked down": "Jhedup (GeneID 36779)", "amplicon": "DRSC07173", "replicate 1, z-score of dpERK with insulin": 0.41}
{"gene knocked down": "CG4462 (GeneID 42376)", "amplicon": "DRSC15583", "replicate 1, z-score of dpERK with insulin": -0.65}
{"gene knocked down": "HemK2 + Snapin", "amplicon": "DRSC00736", "replicate 1, z-score of dpERK with insulin": 0.63}
{"gene knocked down": "HemK2 + Snapin", "amplicon": "DRSC00737", "replicate 1, z-score of dpERK with insulin": -0.68}
{"gene knocked down": "puf (GeneID 42935)", "amplicon": "DRSC15875", "replicate 1, z-score of dpERK with insulin": -1.31}
{"gene knocked down": "CG42780 (GeneID 10178796)", "amplicon": "DRSC17514", "replicate 1, z-score of dpERK with insulin": -0.26}
{"gene knocked down": "Roe1 (GeneID 36508)", "amplicon": "DRSC07534", "replicate 1, z-score of dpERK with insulin": -0.31}
{"gene knocked down": "CG32642 (GeneID 318137)", "amplicon": "DRSC18959", "replicate 1, z-score of dpERK with insulin": 1.4}
{"gene knocked down": "CG7255 (GeneID 39662)", "amplicon": "DRSC10790", "replicate 1, z-score of dpERK with insulin": 0.82}
